Test in all cases: blue native gel electrophoresis, self-association (homotrimer)
Assay [1] deals with PLE2 wild-type (pig) (UniProt Q29550).
In assay [2] the target is PLE3 wild-type (pig) (UniProt Q29550).
In assay [3] the target is PICE wild-type (pig) (UniProt Q29550).
In assay [4] the target is PLE4 wild-type (pig) (UniProt Q29550).
Assay [5] deals with PLE5 wild-type (pig) (UniProt Q29550).

Results are given in words; binding and its absence hold for the method and conditions named. Some results given as binding are weak or reduced against the parent protein; the word gives no strength.

B1: PLE2 wild-type (enzyme)
chain: GQPASPPVVDTAQGRVLGKYVSLEGLAQPVAVFLGVPFAKPPLGSLRFAPPQPAEPWSFVKNTTSYPPMCCQDPVVEQMTSDLFTNGKERLTLEFSEDCLYLNIYTPADLTKRGRLPVMVWIHGGGLVLGGAPMYDGVVLAAHENVVVVAIQYRLGIWGFFSTGDEHSRGNWGHLDQVAALHWVQENIANFGGDPGSVTIFGESAGGESVSVLVLSPLAKNLFHRAISESGVALTVALVRKDMKAAAKQIAVLAGCKTTTSAVFVHCLRQKSEDELLDLTLKMKFLTLDFHGDQRESHPFLPTVVDGVLLPKMPEEILAEKDFNTVPYIVGINKQEFGWLLPTMMGFPLSEGKLDQKTATSLLWKSYPIANIPEELTPVATDKYLGGTDDPVKKKDLFLDLMGDVVFGVPSVTVARQHRDAGAPTYMYEFQYRPSFSSDKKPKTVIGDHGDEIFSVFGAPFLRGDAPEEEVSLSKTVMKFWANFARSGNPNGEGLPHWPMYDQEEGYLQIGVNTQAAKRLKGEEVAFWNDLLSKEAAKKPPKIKHAEL
For B1, the binding entry in assay [1] is “binds”.

B2: PLE3 wild-type (enzyme)
chain: GQPASPPVVDTAQGRVLGKYVSLEGLAQPVAVFLGVPFAKPPLGSLRFAPPQPAEPWSFVKNTTSYPPMCCQEPIGGQMLSDLFTNRKERLIPEFSEDCLYLNIYTPADLTKRGRLPVMVWIHGGGLVVGGASTYDGLALAAHENVVVVAIQYRLGIWGFFSTGDEHSRGNWGHLDQVAALHWVQENIANFGGDPGSVTIFGESAGGESVSVLVLSPLAKNLFHRAISESGVAFTAGLVRKDMKAAAKQIAVLAGCKTTTSAVFVHCLRQKSEDELLDLTLKMKPLTLDLHGDPRESHPFLTTVVDGVLLPKMPEEILAEKDFNTVPYIVGINKQEFGWLLPTMMGFPLSEGKLDQKTATSLLWKSYPIANIPEELTPVATDKYLGGTDDPVKKKDLFLDLMGDVVFGVPSVTVARQHRDAGAPTYMYEFQYRPSFSSDKKPKTVIGDHGDEIFSVFGFPLLKGDAPEEEVSLSKTVMKFWANFARSGNPNGEGLPHWPMYDQEEGYLQIGVNTQAAKRLKGEEVAFWNDLLSKEAAKKPPKIKHAEL
As to B2, in assay [2], the binding entry is reported as “binds”.

B3: PICE wild-type (enzyme)
chain: GQPASPPVVDTAQGRVLGKYVSLEGLAQPVAVFLGVPFAKPPLGSLRFAPPQPAEPWSFVKNTTSYPPMCCQDPVAGQMTSDLFTNGKERLIPEFSEDCLYLNIYTPADLTKRGRLPVMVWIHGGGLVVGGASTYDGLALAAHENVVVVAIQYRLGIWGFFSTGDEHSRGNWGHLDQVAALHWVQENIANFGGDTGSVTIFGESAGGESVSVLVLSPLAKNLFHRAISESGVALTAGLVRKDMKAAAKQIAVLAGCKTTTSAVFVHCLRQKSEDELLDLTLKMKFLTLDLHGDPRESHPFLPTVVDGVLLPKMPEEILAEKDFNTVPYIVGINKQEFGWLLPTMMGFPLSEGKLDQKTATSLLWKSFPITNIPEELTPVATDKYLGGTDDPVKKKDLFLDLMGDVVFGVPSVTVARQHRDAGAPTYMYEFQYRPSFSSDKKPKTVIGDHGDEIFSVFGFPLLKGDAPEEEVSLSKTVMKFWANFARSGNPNGEGLPHWPMYDQEEGYLQIGVNTQAAKRLKGEEVAFWNDLLSKEAAKKPPKIKHAEL
As for B3, in assay [3], the binding result is recorded as “binds”.

B4: PLE4 wild-type (enzyme)
chain: GQPASPPVVDTAQGRVLGKYVSLEGLAQPVAVFLGVPFAKPPLGSLRFAPPQPAEPWSFVKNTTSYPPMCCQDPVAGQMTSDLFTNGKERLIPEFSEDCLYLNIYTPADLTKRGRLPVMVWIHGGGLVVGGASTYDGLALAAHENVVVVAIQYRLGIWGFFSTGDEHSRGNWGHLDQVAALHWVQENIANFGGDPGSVTIFGESAGGESVSVLVLSPLAKNLFHRAISESGVAFTAGLVRKDMKAAAKQIAVLAGCKTTTSAVFVHCLRQKSEDELLDLTLKMKPLTLDLHGDPRESHPFLTTVVDGVLLPKMPEEILAEKDFNTVPYIVGINKQEFGWLLPTMMGFPLSEGKLDQKTATSLLWKSYPIANIPEELTPVATDKYLGGTDDPVKKKDLFLDLMGDVVFGVPSVTVARQHRDAGAPTYMYEFQYRPSFSSDKKPKTVIGDHGDEIFSVFGAPFLRGDAPEEEVSLSKTVMKFWANFARSGNPNGEGLPHWPMYDQEEGYLQIGVNTQAAKRLKGEEVAFWNDLLSKEAAKKPPKIKHAEL
As for B4, in assay [4], the binding result is recorded as “binds”.

B5: PLE5 wild-type (enzyme)
chain: GQPASPPVVDTAQGRVLGKYVSLEGLAQPVAVFLGVPFAKPPLGSLRFAPPQPAEPWSFVKNTTSYPPMCCQDPVAGQMTSDLFTNGKERLIPEFSEDCLYLNIYTPADLTKRGRLPVMVWIHGGGLVVGGASTYDGLALAAHENVVVVAIQYRLGIWGFFSTGDEHSRGNWGHLDQVAALHWVQENIANFGGDPGSVTIFGESAGGESVSVLVLSPLAKNLFHRAISESGVAFTAGLVRKDMKAAAKQIAVLAGCKTTTSAVFVHCLRQKSEDELLDLTLKMKFFALDLHGDPRESHPFLTTVVDGVLLPKMPEEILAEKDFNTVPYIVGINKQEFGWLLPTMMGFPLSEGKLDQKTATSLLWKSYPIANIPEELTPVATDKYLGGTDDPVKKKDLFLDLMGDVVFGVPSVTVARQHRDAGAPTYMYEFQYRPSFSSDKKPKTVIGDHGDEIFSVFGAPFLRGDAPEEEVSLSKTVMKFWANFARSGNPNGEGLPHWPMYDQEEGYLQIGVNTQAAKRLKGEEVAFWNDLLSKEAAKKPPKIKHAEL
Regarding B5, in assay [5], the binding result is reported as “binds”.

These data come from US20120100582A1 (DSM IP ASSETS B V, published 2012).
